From paper PMC12431657, “Discovery and mechanistic insights of dibenzoylmethane as a broad spectrum inhibitor of coronavirus” (PLOS Pathogens, 2025)
Counter-ions that a name gives are not always drawn. Like-named read-outs stand apart in the source and are kept apart here. The campaign covered roughly 3,300 compounds. About 60 (2%) showed an effect of 50% or more. Some of the results follow.

Test system: HCoV-OC43
Parameters: species or system RD; HTS, protection from HCoV-OC43 induced cell death, luminescent cell viability (CellCounting-Lite 2.0), inhibition rate
Conditions: 24 h post infection, 1 h compound pre-incubation, 10 µM, inhibitor

SMILES	OC43 Inhibition rate [%]	OC43 Inhibition rate (OC43 Inhibition rate, 24 h) [%]
O=C(O)C(=O)Cc1ccccc1 [Phenylpyruvic acid]	-1.6	
O=C(O)C(=O)CO [Hydroxypyruvic acid]	-0.3	
O=C1c2ccc(O)cc2OCC1c1ccc(O)cc1 (centres unmarked) [Dihydrodaidzein]	-1.4	
O=C(O)c1cc(=O)c2ccccc2[nH]1 [Kynurenic acid]	4.3	
COc1cc2c(cc1O)CC[n+]1cc3c(OC)c(OC)ccc3cc1-2 [Jatrorrhizine (hydroxide)]		1
Cc1cc2nc3c(=O)[nH]c(=O)nc-3n(C[C@H](O)[C@H](O)[C@H](O)COP(=O)(O)O)c2cc1C [Riboflavin (phosphate sodium)]	11.2	
O=c1ncnc2n([C@H]3O[C@@H](CO)[C@H](O)[C@@H]3O)[nH]cc1-2 (stereo in doubt) [Allopurinol riboside]	1.9	
CC(C)=CCC[C@](C)(O[C@@H]1O[C@H](CO)[C@@H](O)[C@H](O)[C@H]1O)[C@H]1CC[C@]2(C)[C@@H]1[C@H](O)C[C@@H]1[C@@]3(C)CC[C@H](O[C@@H]4O[C@H](CO)[C@@H](O)[C@H](O)[C@H]4O[C@@H]4O[C@H](CO)[C@@H](O)[C@H](O)[C@H]4O)C(C)(C)[C@@H]3CC[C@]12C [Ginsenoside Rd]	-0.9	
C[C@@H]1O[C@@H](OC[C@H]2O[C@@H](Oc3c(-c4ccc(O)cc4)oc4cc(O)cc(O)c4c3=O)[C@H](O[C@@H]3O[C@H](CO)[C@H](O)[C@H](O)[C@H]3O)[C@@H](O)[C@@H]2O)[C@H](O)[C@H](O)[C@H]1O [Camelliaside A]	-0.5	
OCC(CO)N[C@H]1C[C@](O)(CO)[C@@H](O)[C@H](O)[C@H]1O [Voglibose]	-2.6	
CCCCCCCC/C=C\CCCCCCCCCC(=O)O [Gondoic acid]	-0.6	
C[C@H]1C(=O)CC[C@@H]2[C@]1(C)CC[C@H]1[C@@]2(C)CC[C@@]2(C)[C@@H]3CC(C)(C)CC[C@]3(C)CC[C@]12C [Friedelin]	-1.4	
CCCCCCCCCCC/C=C\CCCCC(=O)O [Petroselinic acid]	-0.2	
NCCP(=O)(O)O [(2-Aminoethyl)phosphonic acid]	0.1	
CCCCCCCCCCCCCCCCCCCCCCCCCCCC(=O)O [Octacosanoic acid]	-0.6	
CC1(C)CC(=O)CC(C)(C)N1 [Triacetonamine]	-1.3	
C/C=C(\C)C(=O)O[C@H]1[C@H](O)[C@]2(COC(C)=O)[C@H](O)C[C@]3(C)C(=CC[C@@H]4[C@@]5(C)CC[C@H](O[C@@H]6O[C@H](C(=O)O)[C@@H](O[C@@H]7O[C@H](CO)[C@@H](O)[C@H](O)[C@H]7O)[C@H](O)[C@H]6O[C@@H]6O[C@H](CO)[C@@H](O)[C@H](O)[C@H]6O)[C@](C)(CO)[C@@H]5CC[C@]43C)[C@@H]2CC1(C)C [Isoescin IA]	-0.1	
C/C(=C/CC[C@]1(CO)CC[C@]2(C)[C@H](CC[C@@H]3[C@@]4(C)CC[C@H](O[C@@H]5O[C@H](CO)[C@@H](O)[C@H](O)[C@H]5O[C@@H]5O[C@H](CO)[C@@H](O)[C@H](O)[C@H]5O)[C@@](C)(CO[C@@H]5O[C@H](CO)[C@@H](O)[C@H](O)[C@H]5O)[C@@H]4CC[C@]32C)[C@H]1O)CO [Hosenkoside C]	-0.6	
C/C=C(/C)C(=O)O[C@H]1c2cc3c(c4c2[C@@]2(CO4)C(=O)C(OC)=C(OC)C=C2C[C@@H](C)[C@H]1C)OCO3 [Heteroclitin D]	-0.2	

As entered above:
OC43 Inhibition rate [%], CCCCCCCCCCC/C=C\CCCCC(=O)O [Petroselinic acid] reads -0.2
OC43 Inhibition rate [%], O=C(O)C(=O)Cc1ccccc1 [Phenylpyruvic acid] reads -1.6
OC43 Inhibition rate [%], Cc1cc2nc3c(=O)[nH]c(=O)nc-3n(C[C@H](O)[C@H](O)[C@H](O)COP(=O)(O)O)c2cc1C [Riboflavin (phosphate sodium)] reads 11.2

Later entries.

SMILES	OC43 Inhibition rate [%]	OC43 Inhibition rate (OC43 Inhibition rate, 24 h) [%]
Cn1c(=O)c2[nH]c(=O)[nH]c2n(C)c1=O [1,3-Dimethyluric acid]	-1.4	
C=C1C(=O)O[C@H]2C[C@@H](C)[C@@H]3CCC(=O)[C@@]3(C)[C@@H](OC(C)=O)[C@H]12 [Ergolide]	10.6	
NCCCS(=O)(=O)O [Tramiprosate]	0.3	
COc1cc(O)c2c(=O)c(OC)c(-c3ccc(OC)c(O)c3)oc2c1 [Ayanin]	18	
O=c1ccc2cc(O[C@@H]3O[C@H](CO)[C@@H](O)[C@H](O)[C@H]3O)c(O)cc2o1 [Esculin]	-0.7	
O=C(O)c1ccc2c(c1)OCO2 [Piperonylic acid]	-0.5	
CCCC(N)C(=O)O (racemic) [DL-Norvaline]	1.1	
CC1=C[C@]23C(=O)[C@@H](C=C4COC(C)(C)O[C@H]4C2(O)[C@H]1O)[C@H]1[C@@H](C[C@H]3C)C1(C)C (some centres unmarked) [Ingenol-5,20-acetonide]	-2.5	
CC(C)=CCC[C@@](C)(O)[C@H]1CC[C@]2(C)[C@@H]1[C@H](O)C[C@@H]1[C@@]3(C)CC[C@H](O)C(C)(C)[C@@H]3CC[C@]12C [(20R)-Protopanaxadiol]	-0.6	
OC[C@H]1O[C@@H](Oc2c(O)cc(O)cc2/C=C/c2ccc(O)cc2)[C@H](O)[C@@H](O)[C@@H]1O [2,3,5,4'-Tetrahydroxystilbene 2-O-β-D-glucoside]	-0.2	
CCCCC/C=C\C/C=C\C/C=C\CCCCC(=O)O [Gamma-Linolenic acid]	0.4	
OCCc1ccccc1 [2-Phenylethanol]	1.5	
C[S+](CC[C@H](N)C(=O)[O-])C[C@H]1O[C@@H](n2cnc3c(N)ncnc32)[C@H](O)[C@@H]1O (stereo partly drawn) [S-Adenosyl-L-methionine (tosylate)]	-3.4	
O=c1cc(-c2ccccc2)c2c(O)cc(O)cc2o1 [LC3-mHTT-IN-AN2]	-1.1	
COc1ccc(-c2cc(=O)c3c(O)cc(O[C@@H]4O[C@H](C(=O)O)[C@@H](O)[C@H](O)[C@H]4O)cc3o2)cc1O [DiosMetin 7-O-β-D-Glucuronide]	1	
NCC(O)c1ccc(O)cc1 (centres unmarked) [Octopamine (hydrochloride)]	-0.1	
CC(C)=CCC[C@](C)(O)[C@H]1CC[C@]2(C)[C@@H]1[C@H](O)C[C@@H]1[C@@]3(C)CC[C@H](O)C(C)(C)[C@@H]3[C@@H](O)C[C@]12C [(20S)-Protopanaxatriol]	-0.3	
O=C(c1ccccc1)c1ccccc1 [Benzophenone]	-0.1	
C[C@@H]1CC[C@@]2(OC1)O[C@H]1C[C@H]3[C@@H]4CC=C5C[C@@H](O)CC[C@]5(C)[C@H]4CC[C@]3(C)[C@H]1[C@@H]2C [Diosgenin]	0	

SMILES	OC43 Inhibition rate [%]	OC43 Inhibition rate (OC43 Inhibition rate, 24 h) [%]
C=C[C@H]1CN2CC[C@H]1C[C@@H]2[C@@H](O)c1ccnc2ccc(OC)cc12 [Quinidine]		39.6
O=C(O)[C@H](O)Cc1ccc(O)c(O)c1 [Danshensu]	-0.5	
Cc1ccc(-c2ccccc2)cc1 [4-Methylbiphenyl]	0.9	
COc1ccc2c(c1OC)C(OC)N(C)c1c-2ccc2cc3c(cc12)OCO3 (centres unmarked) [Angoline]	-15.2	
C[C@@]12C[C@@]3(O)O[C@@H](O1)[C@]1(COC(=O)c4ccccc4)[C@H]3C[C@@]12O[C@@H]1O[C@H](COC(=O)c2ccccc2)[C@@H](O)[C@H](O)[C@H]1O [Benzoylpaeoniflorin]	0.2	
C=C[C@H]1[C@H](O[C@@H]2O[C@H](CO)[C@@H](O)[C@H](O)[C@H]2O)OC=C2C(=O)OCC[C@H]21 [Sweroside]	-1.8	
COc1cc(O)c(C(=O)/C=C/c2ccccc2)c(OC)c1 [Flavokawain B]	58.3	
CC1CCC(C(C)C)C(O)C1 (racemic) [DL-Menthol]	-0.4	
CC(/C=C/C=C(\C)C(=O)O[C@@H]1O[C@H](CO[C@@H]2O[C@H](CO)[C@@H](O)[C@H](O)[C@H]2O)[C@@H](O)[C@H](O)[C@H]1O)=C\C=C\C=C(C)\C=C\C=C(/C)C(=O)O[C@@H]1O[C@H](CO[C@@H]2O[C@H](CO)[C@@H](O)[C@H](O)[C@H]2O)[C@@H](O)[C@H](O)[C@H]1O [Crocin]	0	
CC(O)(CC(=O)O)CC(=O)O [Meglutol]	-0.1	
O=C([O-])c1ccc[n+]([C@@H]2O[C@H](CO)[C@@H](O)[C@H]2O)c1 [Nicotinic acid riboside]	0.2	
NC(CCCC(=O)O)C(=O)O (centres unmarked) [Aminoadipic acid]	1.4	
NC(=O)c1ccc[n+]([C@@H]2O[C@H](CO)[C@@H](O)[C@H]2O)c1 [Nicotinamide riboside (chloride)]	0.1	
NC[C@@H]1O[C@H](O[C@H]2[C@@H](O)[C@H](O[C@@H]3[C@@H](O)[C@H](N)C[C@H](N)[C@H]3O[C@H]3O[C@H](CN)[C@@H](O)[C@H](O)[C@H]3N)O[C@@H]2CO)[C@H](N)[C@@H](O)[C@@H]1O [Neomycin (sulfate)]	-1.5	
C/C1=C/CC[C@H](C)C(=O)C[C@@H](C(C)C)C(=O)C1 [Curdione]	1.6	
O=C(O)Cc1cccc2ccccc12 [1-Naphthaleneacetic acid]	0.7	
C=C(NC(=O)c1csc(-c2nc3c(cc2O)-c2nc(cs2)C(=O)N[C@@H]([C@@H](C)O)C(=O)N/C(=C/C)c2nc(cs2)C(=O)N[C@H]2C[C@H](O)C(=O)OCc4cccc5[nH]c(c(C)c45)C(=O)SC[C@H](NC(=O)c4csc2n4)c2nc-3cs2)n1)C(N)=O [Nosiheptide]	15.6	
C[C@H](CO)C1=C(O)C(=O)c2c(ccc3c2CCCC3(C)C)C1=O [Neocryptotanshinone]	2.7	
